According to patent US11040959B2 (The Scripps Research Institute, priority 2016, dated 2021):

Experiment: general procedure: Fmoc solid-phase peptide synthesis; Wang resin; HBTU/HOBt/DIEA; DCC/DMAP for the C-terminal amino acid
Conditions: conjugation step

(2-(2,5-Bis((3S,4S)-3,4-bis(((1S,2R)-2-phenyl-cyclopropyl)carbamoyl)pyrrolidine-1-carbonyl)-phenoxy)acetyl)glycyl-L-seryl-L-lysyl-L-lysine
conjugation yield (TFA salt): 74%

(2-(2,5-Bis((3S,4S)-3,4-bis(((1S,2R)-2-phenyl-cyclopropyl)carbamoyl)pyrrolidine-1-carbonyl)-phenoxy)acetyl)glycyl-L-seryl-L-lysyl-L-lysyl-L-lysine
conjugation yield (TFA salt): 74%

(2-(2,5-Bis((3S,4S)-3,4-bis(((1S,2R)-2-phenyl-cyclopropyl)carbamoyl)pyrrolidine-1-carbonyl)-phenoxy)acetyl)glycyl-L-seryl-L-lysyl-L-lysyl-L-lysyl-L-lysine
conjugation yield (TFA salt): 30%

(2-(2,5-Bis((3S,4S)-3,4-bis(((1S,2R)-2-phenyl-cyclopropyl)carbamoyl)pyrrolidine-1-carbonyl)-phenoxy)acetyl)glycyl-L-seryl-L-seryl-L-seryl-L-seryl-L-serine
conjugation yield: 12%

(2-(2,5-Bis((3S,4S)-3,4-bis(((1S,2R)-2-phenylcyclopropyl)carbamoyl)pyrrolidine-1-carbonyl)-phenoxy)acetyl)glycyl-L-lysyl-L-lysyl-L-lysyl-L-lysyl-L-lysine
conjugation yield (TFA salt): 54%

(2-(2,5-Bis((3S,4S)-3,4-bis(((1S,2R)-2-phenylcyclopropyl)carbamoyl)pyrrolidine-1-carbonyl)phenoxy)acetyl)glycyl-L-seryl-L-lysyl-L-lysyl-L-lysyl-L-lysyl-L-lysine
conjugation yield (TFA salt): 73%
